Test results from PubChem BioAssay AID588497 (NMMLSC, 2011).
Screen size: about 360,000 compounds; about 780 (0.22%) were called active. Inconclusive means that the source gave no clear call. Such entries were picked first, then a sample of the others. No stated cut-off is given here; in the data, active means inhibition above about 35% (passing the limit was not always enough); inconclusive means no clear call, values can overlap the other calls.

Tested on: Botulinum neurotoxin type F light chain protease (Clostridium botulinum)
Assay: BoNT/F light chain protease inhibitors, primary screen, biochemical, flow cytometry, MLPCN library (AID 588497); further: plate controls were buffer without enzyme for full effect and enzyme alone for no effect
Conditions: Multiplex microsphere protease cleavage assay, at 10 µM, stronger effect = higher value

SMILES	inhibition
CC(C)(C)NC(=O)CSc1nc2ccc(NC(=O)CSc3nnnn3Cc3ccccc3)cc2s1	inconclusive: -27%
CCn1ccnc1C(O)c1cccc2ccccc12 (stereo unspecified)	inconclusive: 18.3%
O=c1c(Cc2ccc(F)cc2)c(O)ccn1C1CCCCC1	inactive: -1.3%
CCCOc1ccc(/C=C/C(=O)N2CCOCC2)cc1	inconclusive: -24.3%
CCN(CC)C(=S)SCC(=O)Nc1ncc2c(n1)CCCC2=O	inconclusive: -42.1%
COc1ccc(C(=O)NC2(C(F)(F)F)N=C3SCCN3C2=O)cc1 (stereo unspecified)	inactive: -5.5%
CCOC(=O)CCC(=O)Nc1ccc(S(=O)(=O)Nc2cc(OC)nc(OC)n2)cc1	inconclusive: 15%
Cc1cc(C)n(C(=O)c2cc([N+](=O)[O-])cc([N+](=O)[O-])c2)n1	inconclusive: 18%
N#CCCOC1(C#CCN2CCCC2)CCCCC1	inconclusive: -4.4%
CCn1cc(/C=C(\NC(=O)c2ccccc2F)C(=O)NCCCn2ccnc2)c2ccccc21	inactive: 0.7%
O=C(c1ccc(NC(=O)C(c2ccccc2)c2ccccc2)cc1)c1ccc(C(=O)O)c(C(=O)O)c1	inconclusive: 1.2%
CC(C)CCN1C(=O)c2cccc3c(N)ccc(c23)C1=O	inconclusive: -80.3%
Cc1cc(C)n(C(N)=NC(=O)c2ccccc2)n1	inactive: -5.4%
NNC(=O)c1cc2cc(OC(F)(F)F)ccc2[nH]1	inconclusive: 62.5%
CC(C)N1C(=S)N(Cc2ccco2)C(=O)C1CC(=O)Nc1ccccc1 (stereo unspecified)	inactive: -0.3%
Cc1ccc(S(=O)(=O)N(CC(=O)Nc2ccc(C(N)=O)cc2)C(=O)N2CCN(C)CC2)cc1	inconclusive: 5.8%
CCCn1nnnc1NCc1ccccc1OCC	inconclusive: 29%
COc1ccc(OC(=O)c2c(C)nn(-c3ccccc3)c2C)cc1	inconclusive: 34.3%
C=CCSc1nc2c(c(-c3ccsc3)c1C#N)CN(C)CC2	inconclusive: -256%
COc1ccc(N2CCN(C(=O)COC(=O)COc3cc(C)cc(C)c3)CC2)cc1	inconclusive: -11%
CCN(CC)c1ccc(/C=C2\SC(N)=NC2=O)cc1	inconclusive: 22.2%
CC1(C)CC(NC(=O)c2cc(Cl)ccc2Cl)CC(C)(C)N1	inconclusive: -14.5%
CCOc1ccccc1NC(=S)N1CCN(c2ccccc2)CC1	inconclusive: -9.7%

SMILES	inhibition
CC(OC(=O)c1cccc(-n2cnnn2)c1)C(=O)Nc1ccc(F)cc1Cl (stereo unspecified)	inactive: 6.8%
CCCCC(=O)NC(c1ccc(C(C)C)cc1)c1ccc2cccnc2c1O (stereo unspecified)	inconclusive: -16.7%
COc1ccc(NC(=O)C(=O)NCC(c2ccco2)N2CCc3ccccc3C2)cc1OC (stereo unspecified)	inconclusive: -16.5%
Cn1c(=O)c(-c2cccc(Cl)c2)c(O)c2ccccc21	inconclusive: -8%
CNc1nc(-c2ccccc2)cc(C(F)(F)F)c1C#N	inactive: 21.4%
NNC(=O)c1ccc(S(=O)(=O)N2CCc3ccccc32)cc1	inactive: 5.2%
CCN1CCN(C(=O)c2cc3cc4cc(OC)ccc4nc3s2)CC1	inconclusive: 16.2%
CCS(=O)(=O)N1Cc2ccccc2CC1C(=O)N(C)Cc1ccc(OC)c(F)c1 (stereo unspecified)	inactive: 6.3%
O=C(Cc1ccc(Br)cc1)Nc1ncc([N+](=O)[O-])s1	inconclusive: -10.2%
CC(Oc1ccc(Cl)cc1Cl)C(=O)Nc1ncccn1 (stereo unspecified)	inconclusive: 24%
O=C(NCCC1=CCCCC1)c1cnsn1	inconclusive: -32.5%
CC1CCCC(C)N1C(=O)COC(=O)c1nn(C)c(=O)c2ccccc12 (stereo unspecified)	inactive: -4.7%
CCOc1ccc(C(C)=O)cc1COC(=O)CN1C(=O)NC2(CCCC2)C1=O	inconclusive: -9.5%
COC(=O)c1sc(C(F)(F)F)c(-c2ccccc2)c1S(=O)(=O)NC(C)(C)C	inconclusive: 48.2%
CCOc1ccc(-n2nc3cc(C)c(N)cc3n2)cc1	inconclusive: 12%
CCN(CC)c1ccc(/C=C/c2cc(-c3ccccc3)c3ccccc3n2)cc1	inconclusive: -98.7%
CC(C)Cc1ccc(C(=O)NCc2ccc3c(c2)OCO3)o1	inconclusive: -52.4%
COCCCN1C2=C(C(=O)CC(C)(C)C2)C(c2ccc(OC)c(OC)c2)C2=C1CC(C)(C)CC2=O	inconclusive: 21.1%
Cc1cc(-c2nnc(SCC(=O)Nc3ccc(C(F)(F)F)cc3)n2C)no1	inconclusive: -80.6%
O=C(Nc1ccc(S(=O)(=O)Nc2ccccn2)cc1)c1cccc(Cl)c1	active: 36.4%
COc1ccc(S(=O)(=O)NCc2c(-c3ccccc3)noc2C)c(OC)c1	inconclusive: 30.9%
CCc1ccccc1NCC(=O)Nc1ccc(Cl)c(C(F)(F)F)c1	inactive: -3.6%
COc1ccc(N2CCN(C(=O)COC(=O)CNC(=O)c3ccc(C)cc3)CC2)cc1	inconclusive: 15%

Quoted at random: 5 compounds from above
SMILES	inhibition
CC(OC(=O)c1cccc(-n2cnnn2)c1)C(=O)Nc1ccc(F)cc1Cl (stereo unspecified)	inactive: 6.8%
CCc1ccccc1NCC(=O)Nc1ccc(Cl)c(C(F)(F)F)c1	inactive: -3.6%
CC(C)(C)NC(=O)CSc1nc2ccc(NC(=O)CSc3nnnn3Cc3ccccc3)cc2s1	inconclusive: -27%
CCN1CCN(C(=O)c2cc3cc4cc(OC)ccc4nc3s2)CC1	inconclusive: 16.2%
CC(C)CCN1C(=O)c2cccc3c(N)ccc(c23)C1=O	inconclusive: -80.3%

(cont.)

SMILES	inhibition
Cc1cc(-c2sccc2C)nc(-n2cccc2)n1	inactive: -6.2%
Cc1ccc(S(=O)(=O)NCCC(=O)Nc2cccc(Cl)c2)cc1	inactive: -7.2%
CCN(CC(=O)Nc1c(F)cccc1F)C(=O)CCN1C(=O)C2CCCCC2C1=O (stereo unspecified)	inconclusive: -4.2%
C=CCn1c(COc2ccccc2-c2ccccc2)nnc1SCC(=O)NC(=O)NCc1ccco1	inactive: -5.7%
O=C(COC(=O)Cc1c(F)cccc1Cl)NC(=O)c1ccccc1	inactive: 4.5%
CC(C)C(=O)N=C1SC2CS(=O)(=O)CC2N1Cc1ccc(Cl)cc1 (stereo unspecified)	inconclusive: 60.4%
O=C(NCc1ccco1)c1cccc(Br)c1	inconclusive: 8.7%
CCOC(=O)C(=CNc1ccc(C(F)(F)F)cc1Cl)C(=O)OCC	inconclusive: 51.4%
Cc1ccc(OCC(=O)N/N=C/c2cccnc2)cc1	inactive: -1.4%
Nc1nc(NCCCN2CCOCC2)nc(NCc2ccccc2)c1[N+](=O)[O-]	inconclusive: -52.9%
O=C(CC1OC(=O)c2ccccc21)Nc1cc(Cl)ccc1N1CCCC1 (stereo unspecified)	inconclusive: -2.8%
Cn1c(O)c(/C=N/N2CCOCC2)c(=O)n(C)c1=S	inconclusive: 14.3%
O=C(Cn1cnc2ccccc2c1=O)N/N=C/c1ccc(Br)cc1	inconclusive: -26.2%
Cc1ccc(F)c(N=Cc2c(O)c3ccccc3oc2=O)c1	inconclusive: -34.7%
N=C1/C(=C/c2ccco2)C(=O)N=C2SC(CC(=O)N3CCCC3)=NN12	inactive: 1.3%
O=C(c1ccccc1)C1CCN(C(=O)c2cccs2)CC1	inconclusive: -114%
Brc1cccc(OCCN2CCOCC2)c1	inconclusive: -21.4%
COC(=O)c1ccc(S(=O)(=O)NCc2ccccn2)n1C	inconclusive: 11.1%
CC(=O)c1cccc(OCC(O)CNCCOc2ccc(C)cc2)c1 (stereo unspecified)	inactive: -6.9%
COc1c(/C=C2\SC(=Nc3ccccc3Cl)NC2=O)cccc1[N+](=O)[O-]	inconclusive: 7.9%
CC(NC(=O)c1cc2c(cc1Cl)N1CCCCCC1=NS2(=O)=O)c1ccc(S(N)(=O)=O)cc1 (stereo unspecified)	inconclusive: -31.8%
CCCSc1nc(O)c(CC)c(=O)n1C(C)CC (stereo unspecified)	inactive: 11%
COc1ccccc1NC(=S)NCc1ccc(F)cc1	inconclusive: -43.3%

SMILES	inhibition
COc1cc(-c2nnc(-c3ccco3)o2)ccc1OCc1ccccc1	inactive: 3.6%
COc1ccc(-c2nc(N)ncc2-c2ccccc2OC)c(O)c1	inactive: -11.5%
CCOc1ccc(C(=O)n2cc(C(=O)OC)c3ccccc32)cc1OCC	inconclusive: -4.2%
CCc1cc2c(Nc3ccc(O)cc3)nc(C)nc2s1	inconclusive: 19.6%
CC1C=CC=CC=CC=CC=CC=CC=CC(OC2OC(C)C(O)C(N)C2O)CC2OC(O)(CC(O)CC(O)C(O)CCC(O)CC(O)CC(=O)OC(C)C(C)C1O)CC(O)C2C(=O)O (stereo unspecified)	inactive: 5.5%
CCOc1ccccc1NC(=O)CSc1nnc(-c2ccccn2)n1Cc1ccco1	inactive: -11.5%
O=[N+]([O-])c1ccc(Cc2ccccn2)c([N+](=O)[O-])c1	inconclusive: 19.8%
O=C(O)c1ccccc1C(=O)Nc1cccc([N+](=O)[O-])c1	inconclusive: -1.4%
Oc1ccc(Cl)cc1CNc1cccc2cccnc12	inconclusive: -36.5%
COC(=O)Cn1cc(/C=C/c2cc[n+](C)cc2)c2ccccc21	inconclusive: 22.7%
COc1ccc(C)cc1S(=O)(=O)N1CCCCCC1	inactive: -1.6%
COc1cccc(-n2c(O)c(C=NCCN3CCNCC3)c(=O)[nH]c2=S)c1	inconclusive: 0.4%
COc1ccc(-n2ncc3c(=O)n(CC(=O)NC(C)C)cnc32)cc1	inconclusive: -5.9%
CCN(CC)CCCn1c2c(c(SCC(=O)Nc3cc(C)on3)nc1=O)CCC2	inconclusive: 3.7%
O=C(c1cccn2c(=O)c3ccccc3nc12)N1CCN(Cc2ccc3c(c2)OCO3)CC1	inactive: -0.4%
O=C(NCc1csc2ccccc12)Nc1cc(Cl)cc(Cl)c1	inconclusive: 27.1%
COc1cc(NS(=O)(=O)c2ccc(NC(=O)c3ccco3)cc2)nc(OC)n1	inactive: -7.3%
CCOc1ccccc1NC(=O)CCS(=O)(=O)c1ccc(OC)cc1	inactive: 3.1%
O=C(O)c1ccccc1Nc1ccc([N+](=O)[O-])cc1C(=O)O	inconclusive: -54.2%
Cc1cc(NS(=O)(=O)c2ccc(NC(=O)CCN3C(=O)c4ccccc4C3=O)cc2)no1	inactive: 1.1%
CCCCc1ccc(NC(=O)CN(C)CC(=O)Nc2ccccc2Cl)cc1	inactive: 21.1%
COc1cc2[nH]c(C(=O)N(C)Cc3ccccc3)cc2c(OC)c1OC	inconclusive: -33.6%

Some of these compounds in order of molecular weight, smallest number first.
SMILES	inhibition
O=C(NCc1csc2ccccc12)Nc1cc(Cl)cc(Cl)c1	inconclusive: 27.1%
COc1cc2[nH]c(C(=O)N(C)Cc3ccccc3)cc2c(OC)c1OC	inconclusive: -33.6%
O=C(c1cccn2c(=O)c3ccccc3nc12)N1CCN(Cc2ccc3c(c2)OCO3)CC1	inactive: -0.4%
